# Reference: patent EP0268663B1, “PHOSPHOPEPTIDES” (THE UNIVERSITY OF MELBOURNE, priority 1986, dated 1995)
# Part of at least one peptide drawing is inferred or uncertain, most often the ends. Square brackets hold non-standard residues; d marks the D form. Peptide text beside a SMILES is read from it. pS = N[C@@H](COP(=O)(O)O)C(=O)O
# How the values were obtained:
# [1] = Hydroxyapatite Dissolution Rate Assay; assay type: physicochemical
# [2] = Intra-Oral Caries Test; assay type: in vivo; conditions: plaque exposed twice a day to the peptide T1 solution (1.8% w/v calcium phosphate T1)
# Method: The anticariogenicity of phosphopeptide T1 was determined using a modification of the intra-oral caries test of Koulourides and Ostrom (Caries Res. 10:442-482, 1976). Enamel slabs were inset in a removable intra-oral appliance to simulate an approximal area. This was done on both sides of the removable appliance (left and right). The appliance was worn to allow plaque accumulation in the simulated approximal areas. Eight times a day the appliance was removed and placed in a solution at 37°C. The solution was 2% w/v sucrose, 2% w/v glucose, 140 mM KCl, 20mM NaCl at pH 7.0. Twice a day the right side enamel slabs received exposure to a solution containing 1.8% w/v calcium phosphate T1 in 140 mM KCl, 20 mM NaCl at pH 7.0, while the left side received only the salt solution. At the completion of the experiment the enamel slabs were removed, sectioned and subjected to microradiography and microhardnass testing. […] The results were confirmed by microhardness analysis. Plaque was also taken from both sides of the appliance and analysed for calcium phosphate, serine phosphate and peptide T1 using a competitive, quantitative, enzyme-linked immunosorbent assay (ELISA) utilising monoclonal antipeptide T1 antibodies.
compound,measurement,setting,value
CC[C@H](C)[C@H](NC(=O)[C@H](COP(=O)(O)O)NC(=O)[C@H](CCC(=O)O)NC(=O)[C@H](C)NC(=O)[C@H](CCC(=O)O)NC(=O)[C@H](CCSC)NC(=O)[C@@H](N)CCC(=O)O)C(=O)N[C@@H](COP(=O)(O)O)C(=O)N[C@@H](COP(=O)(O)O)C(=O)N[C@@H](COP(=O)(O)O)C(=O)N[C@@H](CCC(=O)O)C(=O)N[C@@H](CCC(=O)O)C(=O)N[C@H](C(=O)N[C@H](C(=O)N1CCC[C@H]1C(=O)N[C@@H](CC(N)=O)C(=O)N[C@@H](COP(=O)(O)O)C(=O)N[C@H](C(=O)N[C@@H](CCC(=O)O)C(=O)N[C@@H](CCC(N)=O)C(=O)N[C@@H](CCCCN)C(=O)O)C(C)C)C(C)C)[C@@H](C)CC [Phosphopeptide T1] (H-EMEAE[pS]I[pS][pS][pS]EEIVPN[pS]VEQK-OH),greater retention of fluoride in the hydroxyapatite column,[1],50%
same,increase of the level of calcium phosphate in plaque,[2],2-4 fold
